Results: PubChem BioAssay AID2685 (National Center for Advancing Translational Sciences (NCATS), 2010)
The other results are listed elsewhere or left out. These are further read-outs of the screen, such as a control signal, another cell line or another target. No call is given for them. The list favours compounds with an active or inconclusive main result. Words in brackets tell the shape of the fitted curve; partial curves, single points and poor fits give uncertain potencies.

Experiment: qHTS Assay for Lipid Storage Modulators in Drosophila S3 Cells;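 for cell number change: cells counted by Cell Tracker Red CMTPX staining in the red channel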
Settings: BODIPY lipid droplet fluorescence, 18-24 h; for cell number change: measured here: cell count max response, cells fed with added oleic acid
Outline: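 Drosophila S3 cells got compounds at several concentrations plus oleic acid (400 uM solution). Laser-scanning cytometry with 488 nm excitation read lipid droplets at 500-530 nm and cells at 575-640 nm. Percent activity was relative to 20 uM Triacsin C.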

[1] = measured here: lipid fluorescence (Fed channel) AC50, cells fed with added oleic acid
[2] = measured here: cell number channel AC50, cells fed with added oleic acid

Question: With `Cc1ccc(S(=O)(=O)N(CC(=O)N2CCc3ccccc3C2)c2cccc(Cl)c2)cc1` as the compound, how does the cell number change read?
Answer: 2.29%

Question: And the AC50 [1]?
Answer: 32.6 µM [rising, partial curve, poor fit]

Question: Which cell number change does the source give for `Cc1cccc(C(=O)Nc2ccc3c(c2)ncn3C)c1` here?
Answer: 2.01%

Question: And the AC50 [1]?
Answer: 0.206 µM [rising, partial curve, poor fit]

Question: For `COc1ccc(-c2noc(CCc3ccccc3)n2)cc1`, which cell number change is on record?
Answer: 84.9%

Question: What about the AC50 [2] of the same compound?
Answer: 23.1 µM [rising, partial curve]

Question: For `COc1ccc(NC(C)=O)cc1NC(=O)c1cccc(S(=O)(=O)N2CCc3ccccc32)c1`, which cell number change is on record?
Answer: 17.8%

Question: And the AC50 [2]?
Answer: 3.26 µM [rising, single point]

Question: And the AC50 [1]?
Answer: 18.4 µM [rising, single point]

Question: Which results are given for `O=C(CN1C2=NCCCN2c2ccccc21)c1ccc(Br)s1`?
Answer: cell number change: 78.9%; AC50 [2]: 8.2 µM [rising, partial curve]; AC50 [1]: 4.11 µM [rising, single point]

Question: What does the source list for `CCN1CCN(S(=O)(=O)c2ccc(Br)s2)CC1`?
Answer: cell number change: -213%; AC50 [2]: 29.1 µM [falling, partial curve]

Question: What does the source list for `Cc1cccc([C@@H]2[C@@H]3C(=O)N(Cc4ccccc4)C(=O)[C@@H]3[C@]3(Cc4ccc(Cl)cc4)C(=O)N(c4ccc(Br)cc4)C(=O)N23)c1`?
Answer: cell number change: 58.7%; AC50 [2]: 29.1 µM [rising, single point]; AC50 [1]: 6.51 µM [falling, single point]

Question: For `COc1ccc(Nc2ncnc3c2cnn3-c2cccc(C)c2)cc1OC`, which cell number change is on record?
Answer: 17.4%

Question: What about the AC50 [1] of the same compound?
Answer: 0.366 µM [rising, full curve]

Question: What does the source list for `COc1ncnc(OC)c1NC(=O)c1ccc(F)cc1`?
Answer: cell number change: 11.8%; AC50 [2]: 2.06 µM [falling, partial curve, poor fit]; AC50 [1]: 2.06 µM [falling, partial curve, poor fit]

Question: Which cell number change does the source give for `CCOC(=O)c1c(C)[n+]([O-])c2ccc3c(non3O)c12` here?
Answer: -50.1%

Question: What about the AC50 [2] of the same compound?
Answer: 25.9 µM [falling, single point]

Question: And the AC50 [1]?
Answer: 29.1 µM [falling, single point]

Question: For `CO/N=C/c1c(-c2ccccc2)nn(C)c1Cl`, which cell number change is on record?
Answer: -16.9%

Question: What about the AC50 [1] of the same compound?
Answer: 6.51 µM [falling, partial curve, poor fit]

Question: With `Cc1cc(C(=O)COC(=O)c2cccc(S(=O)(=O)N(C)C)c2)c(C)n1CC1CCCO1` (centres undefined) as the compound, how does the cell number change read?
Answer: -11.2%

Question: Which results are given for `COC(=O)C1CCN(S(=O)(=O)Cc2ccccc2)CC1`?
Answer: cell number change: 15.9%; AC50 [1]: 0.092 µM [falling, full curve]

Question: With `COc1ccc(Cl)cc1NC(=S)N1CCN(c2ncccn2)CC1` as the compound, how does the cell number change read?
Answer: 17.6%

Question: With `O=C(O)COc1ccccc1/C=N/Nc1ccc(S(=O)(=O)N2CCOCC2)cc1[N+](=O)[O-]` as the compound, how does the cell number change read?
Answer: 27.7%

Question: And the AC50 [1]?
Answer: 0.146 µM [rising, full curve, poor fit]

Question: With `Cc1ccc(-c2csc(N3CCN(c4cc5c(cc4Cl)nc(C(C)N)n5CCCO)CC3)n2)cc1` (centres undefined) as the compound, how does the cell number change read?
Answer: 30.4%

Question: What about the AC50 [1] of the same compound?
Answer: 29.1 µM [rising, single point]

Question: Which cell number change does the source give for `C/C(CCC(C)C)=N\Nc1cc(C)c2ccccc2n1` here?
Answer: 80.1%

Question: And the AC50 [2]?
Answer: 2.59 µM [rising, full curve]

Question: What about the AC50 [1] of the same compound?
Answer: 3.26 µM [rising, partial curve]

Question: For `O=C1C2C3C=CC(C3)C2C(=O)N1Nc1ccc([N+](=O)[O-])cc1[N+](=O)[O-]` (centres undefined), which cell number change is on record?
Answer: -13.1%

Question: What does the source list for `COC(=O)c1sc(S(=O)(=O)NCc2ccccc2)c(C(=O)OC)c1C`?
Answer: cell number change: 3.66%; AC50 [1]: 29.1 µM [rising, single point]

Question: For `Cc1cc(NC(=O)c2noc3c2CCc2ccccc2-3)n(-c2ccccc2)n1`, which AC50 [1] is on record?
Answer: 32.6 µM [falling, single point]

Question: For `CC(C)c1csc(CN2CCC(CO)(Cc3ccccc3)CC2)n1`, which cell number change is on record?
Answer: -15.9%

Question: What about the AC50 [1] of the same compound?
Answer: 9.2 µM [falling, partial curve, poor fit]

Question: With `Cc1cc(NC(=O)CSc2nnc(C3COc4ccccc4O3)o2)no1` (centres undefined) as the compound, how does the cell number change read?
Answer: -14.8%

Question: And the AC50 [2]?
Answer: 0.517 µM [falling, full curve, poor fit]

Question: And the AC50 [1]?
Answer: 0.184 µM [falling, full curve, poor fit]

Question: For `C=CCn1c(SCC(=O)NCC2CCCO2)nc2sc(C)c(C)c2c1=O` (centres undefined), which cell number change is on record?
Answer: -10.3%

Question: And the AC50 [1]?
Answer: 1.84 µM [falling, partial curve]

Question: For `CN(Cc1ccccc1)C1CC(=O)N(c2ccc(C(=O)O)cc2)C1=O` (centres undefined), which cell number change is on record?
Answer: -180%

Question: And the AC50 [2]?
Answer: 7.31 µM [falling, partial curve]

Question: With `Cc1ccccc1OCCC(=O)Nc1c(C)n(C)n(-c2ccccc2)c1=O` as the compound, how does the cell number change read?
Answer: -12.5%

Question: What about the AC50 [1] of the same compound?
Answer: 3.26 µM [falling, single point]

Question: Which results are given for `O=C(NCc1ccccn1)c1nn(-c2ccccc2)c(=O)c2ccccc12`?
Answer: cell number change: -3.01%; AC50 [1]: 16.4 µM [falling, single point]

Question: Which cell number change does the source give for `Cc1ccc(C)c(NC(=O)CN(C)C(=O)C2CCCC2)c1` here?
Answer: -5.52%

Question: And the AC50 [1]?
Answer: 6.51 µM [falling, single point]

Question: What does the source list for `O=C1c2ccccc2-c2cccc(C(=O)N3CCCCCC3)c21`?
Answer: cell number change: 1.81%; AC50 [1]: 9.2 µM [rising, partial curve]

Question: For `Cc1ccc(CSc2nnc(SCC(=O)N/N=C/C=C/c3ccco3)s2)cc1`, which cell number change is on record?
Answer: -13.8%

Question: And the AC50 [1]?
Answer: 0.517 µM [rising, partial curve, poor fit]

Question: For `COC(=O)CSc1nc2c(c(=O)n(C)c(=O)n2C)n1CCCc1ccccc1`, which cell number change is on record?
Answer: -9.58%

Question: Which cell number change does the source give for `O=C(COC(=O)c1ccccc1Oc1ccccc1)NC1CCS(=O)(=O)C1` (centres undefined) here?
Answer: -2.86%

Question: And the AC50 [1]?
Answer: 0.13 µM [falling, full curve, poor fit]

Question: Which results are given for `CCC(=O)OCC(=O)Nc1ccc2c(c1)OCO2`?
Answer: cell number change: 28%; AC50 [1]: 2.31 µM [falling, partial curve, poor fit]

Question: What does the source list for `CCC1(c2ccc(F)cc2)NC(=O)N(CC(=O)Nc2ccc(-c3nc4ccc(C)cc4s3)cc2)C1=O` (centres undefined)?
Answer: cell number change: 34.1%; AC50 [2]: 29.1 µM [rising, single point]

Question: With `N#CC(C#N)=C(Nc1ccc(F)cc1)SCc1cccc(Br)c1` as the compound, how does the cell number change read?
Answer: -40.6%

Question: What about the AC50 [2] of the same compound?
Answer: 32.6 µM [falling, partial curve, poor fit]

Question: And the AC50 [1]?
Answer: 16.4 µM [falling, partial curve, poor fit]

Question: Which cell number change does the source give for `Cn1c(Oc2ccccc2NCc2cccc(Br)c2)cc(=O)n(C)c1=O` here?
Answer: -9.06%

Question: Which results are given for `O=C(NCC(=O)N(c1ccc(Cl)cc1)C(C(=O)NC1CCCC1)c1ccncc1)c1ccco1` (centres undefined)?
Answer: cell number change: -13.2%; AC50 [1]: 0.447 µM [falling, single point]
